Source: PMC5548924, “The N-Terminal Region of Fibrillin-1 Mediates a Bipartite Interaction with LTBP1” (Structure(London, England:1993), 2017)
Results are given in words; binding and its absence hold for the method and conditions named.

The chains behind the UniProt entries cited, without tags or fusion partners. Where a name states a change or a piece, a line headed by the entry shows the natural chain unless it says otherwise. A line that says so, or that is headed by a name, gives the form on record, which may keep a tag or linker.
FBN1^E2cbEGF1 (fibrillin-1 EGF2-EGF3-Hyb1-cbEGF1) (P35555, form named): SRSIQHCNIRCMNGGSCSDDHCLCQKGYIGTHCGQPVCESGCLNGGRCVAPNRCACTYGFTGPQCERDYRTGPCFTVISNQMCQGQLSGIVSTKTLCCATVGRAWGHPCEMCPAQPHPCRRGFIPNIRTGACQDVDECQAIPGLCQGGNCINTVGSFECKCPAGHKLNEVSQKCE

Target: FBN1^E2cbEGF1 (fibrillin-1 EGF2-EGF3-Hyb1-cbEGF1) (human) (UniProt P35555)
Experiment: SAXS; FBN1^E2cbEGF1 at 11.55, 5.78, 2.89 and 1.44 mg/mL; 20 mM MES pH 5.4, 5 mM CaCl2, 5% glycerol; both purified

binding: no binding (tested: 11.55 mg/mL)
Substance: FBN1^E2cbEGF1 (fibrillin-1 EGF2-EGF3-Hyb1-cbEGF1) (from UniProt P35555 113-287) (domain or fragment)
